# Record: PubChem BioAssay AID1259254 (NCATS, 2017)
# Assay: 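Finding genes that stop cells copying their DNA twice in one cycle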 (primary screen)
# System: human HCT116 colorectal cancer cells
# Reagents: single siRNA against human genes
# Duration: 3 days
# Detection: 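Imaged Hoechst DNA stain sorts each cell into a cycle phase by DNA amount; per plate, G2 fraction set to 0% for non-targeting and 100% for GMNN siRNA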
# Scale: G2 robust z-score and G2 cells, % of GMNN control: higher = more G2 cells, more excess DNA replication; raw share of cells in G2: higher = larger share of cells with G2 DNA content
# Rule for the call: 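Active siRNAs have a G2 robust z of 5 or more median absolute deviations over the median, which in these data means about 38% or higher of GMNN control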
# Here is an unselected part of about 59,000 deposited reagents. About 1,550 of all reagents (2.6%) were called active. 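G2 share is only a proxy for re-replication; each gene was hit by three separate siRNAs, and active genes were retested.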 The raw values are shown without normalisation. Entries without a mark were called inactive. Reagents against one gene are numbered here. Not stated in the record: the amount of reagent.
Gene,reagent,G2 robust z-score,"G2 cells, % of GMNN control",raw share of cells in G2 (%)
LINC02873 (GeneID 283171),1,-0.424,-0.0125,3.64
LINC02873 (GeneID 283171),2,-0.153,1.89,3.77
LINC02873 (GeneID 283171),3,1.1,10.7,6.52
OIP5-AS1 (GeneID 729082),1,1.29,12,8.53
OIP5-AS1 (GeneID 729082),2,0.988,9.92,6.52
OIP5-AS1 (GeneID 729082),3,0.874,9.11,6.66
TIAL1 (GeneID 7073),1,-0.0805,2.4,5.59
TIAL1 (GeneID 7073),2,-1.15,-5.16,2.36
TIAL1 (GeneID 7073),3,1.67,14.7,10.7
C17orf67 (GeneID 339210),1,-0.791,-2.59,3.1
C17orf67 (GeneID 339210),2,0.588,7.1,6.37
C17orf67 (GeneID 339210),3,-0.637,-1.52,3.58
MCAM (GeneID 4162),1,1.8,15.7,11.4
MCAM (GeneID 4162),2,-1.49,-7.55,0.705
MCAM (GeneID 4162),3,0.189,4.3,7.17
TMEM244 (GeneID 253582),1,4.12,31.9,15.2
TMEM244 (GeneID 253582),2,0.0434,3.27,4.25
TMEM244 (GeneID 253582),3,-0.103,2.24,3.91
ATG12 (GeneID 9140),1,-0.903,-3.39,3.63
ATG12 (GeneID 9140),2,-0.548,-0.89,3.54
ATG12 (GeneID 9140),3,1.26,11.8,7.53
DVL1 (GeneID 1855),1,0.000755,2.97,6.39
DVL1 (GeneID 1855),2,0.907,9.35,6.99
DVL1 (GeneID 1855),3,-0.938,-3.63,3.92
MSMO1 (GeneID 6307),1,-0.708,-2.02,3.47
MSMO1 (GeneID 6307),2,-0.448,-0.181,4.92
MSMO1 (GeneID 6307),3,-0.219,1.43,5.22
PXK (GeneID 54899),1,-1.44,-7.15,3.37
PXK (GeneID 54899),2,0.433,6.01,7.38
PXK (GeneID 54899),3,0.0134,3.06,4.66
MFRP (GeneID 83552),1,-0.844,-2.97,3.12
MFRP (GeneID 83552),2,6.26 (active),47,22.2
MFRP (GeneID 83552),3,2.38,19.7,13.6
NUP37 (GeneID 79023),1,-0.592,-1.2,2.38
NUP37 (GeneID 79023),2,-0.602,-1.27,4.03
NUP37 (GeneID 79023),3,0.215,4.48,6.62
TMEM135 (GeneID 65084),1,1.44,13.1,10.3
TMEM135 (GeneID 65084),2,1.03,10.2,9.19
TMEM135 (GeneID 65084),3,0.215,4.48,3.88
NAT14 (GeneID 57106),1,2.69,21.9,16
NAT14 (GeneID 57106),2,0.175,4.2,5.94
NAT14 (GeneID 57106),3,1.45,13.2,9.82
TLX2 (GeneID 3196),1,2.39,19.8,12.2
TLX2 (GeneID 3196),2,-0.933,-3.6,4.31
TLX2 (GeneID 3196),3,3.12,24.9,13.3
KLHDC7B (GeneID 113730),1,-0.469,-0.332,3.96
KLHDC7B (GeneID 113730),2,-0.204,1.53,3.79
KLHDC7B (GeneID 113730),3,-0.651,-1.61,1.35

A stretch of the results above, as a working copy:
Gene,reagent,G2 robust z-score,"G2 cells, % of GMNN control",raw share of cells in G2 (%)
PXK (GeneID 54899),3,0.0134,3.06,4.66
MFRP (GeneID 83552),1,-0.844,-2.97,3.12
MFRP (GeneID 83552),2,6.26 (active),47,22.2
